Reference: patent US20210115000A1, “NILE RED DERIVATIVES FOR IMPROVED RATIOMETRIC IMAGING FOR NERVE SPECIFIC CONTRAST” (Oregon Health & Sciences University, priority 2018, published 2021)
Some results were stated once for a whole list of compounds, not compound by compound.

Test: Spectroscopic analysis: absorbance, emission and quantum yield of Nile Red derivatives
Assay type: physicochemical
Conditions: in DMSO; standard Rhodamine B
Protocol: Tandem liquid chromatography mass spectroscopy (LCMS) analysis (Agilent 1260 LC system with a 6224 time of flight (TOF) MS, Agilent, Santa Clara, Calif.) was performed using a 2.7 micron C18 column (4.6×50 mm, Agilent). High performance liquid chromatography (HPLC) purification (Agilent 1260 system with a preparative pump) was performed using a 5 micron C18 column (21.2×150 mm, Agilent). For both HPLC and LCMS, the mobile phase consisted of HPLC grade acetonitrile and water, treated with 0.1% formic acid. Spectroscopic analysis was performed on a Spectramax M5 spectrometer (Molecular Devices, Sunnyvale, Calif.) using a quartz cuvette with a 1 cm pathlength. Quantum yield was calculated according to equation (1).
Where Ø is the quantum yield, F is the integrated fluorescence intensity, f is the absorbance at the excitation wavelength and n is the refractive index of the solvent. S refers to the quantum yield standard (Rhodamine B)^25 and X refers to the unknown sample.

Row | Structure (SMILES) | QY (quantum yield)
1 | CCN(CC)c1ccc2nc3c4ccc(-c5ccc(N)cc5)cc4c(=O)cc-3oc2c1 [NR1] | < 0.14
2 | CCN(CC)c1ccc2nc3c4cc(C#Cc5ccc(C=O)c(S(C)(=O)=O)c5)ccc4c(=O)cc-3oc2c1 [NR6, 4-((9-(diethylamino)-5-oxo-5H-benzo[a]phenoxazin-2-yl)ethynyl)-2-(methylsulfonyl)benzaldehyde] | > 0.45
3 | CCN(CC)c1ccc2nc3c4cc(C#Cc5cccc(N)c5)ccc4c(=O)cc-3oc2c1 [NR7, 2-((3-aminophenyl)ethynyl)-9-(diethylamino)-5H-benzo[a]phenoxazin-5-one] | < 0.14
4 | CCN(CC)c1ccc2nc3c4cc(C#Cc5cccc(C=O)c5)ccc4c(=O)cc-3oc2c1 [NR8, 3-((9-(diethylamino)-5-oxo-5H-benzo[a]phenoxazin-2-yl)ethynyl)benzaldehyde] | > 0.45
5 | CCN(CC)c1ccc2nc3c4cc(C#Cc5cc(C=O)ccc5OC)ccc4c(=O)cc-3oc2c1 [NR9, 3-((9-(diethylamino)-5-oxo-5H-benzo[a]phenoxazin-2-yl)ethynyl)-4-methoxybenzaldehyde] | > 0.45
